PubChem BioAssay AID1053208 – Peter MacCallum Cancer Centre – 2014
The whole screen tested about 17,000 reagents; shown is a random part of them. 788 of them (4.7%) were called active. 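Calls rest on z-score classes alone; an extra cut-off of viability at most 70% of control was not applied to them.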 A number with no mark means an inactive call. Further read-outs or replicates are left out here.

Test: 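Find knock-downs that sensitise mouse osteosarcoma cells to doxorubicin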 (primary screen)
Cell system: mouse osteosarcoma cells, early-passage culture from an engineered mouse model of fibroblastic bone tumour
Reagents: siRNA pool against mouse genes, 40 nM
Time to read-out: about 120 h (48 h before drug, then 72 h with drug)
Treatment: doxorubicin 100 nM for 72 h, roughly 30-40% inhibitory dose
Measurement: 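Luminescent ATP signal taken as viability with or without 100 nM doxorubicin for 72 h; mean of two wells set against non-targeting siRNA and turned into robust z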
Direction: viability z-score with doxorubicin: higher = more viable cells under doxorubicin; viability z-score without drug: higher = more viable cells with knock-down alone
Call rule: 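Called active if knock-down leaves viability unchanged without drug (z within -2 to 2) but lowers it with doxorubicin (z at or under -2)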

The first 2 records as a preview:
no.	Gene	PubChem SID	combined z-score class	viability z-score with doxorubicin	viability z-score without drug
1	Or5t16	SID152341704	no change with or without drug	-0.22	0.51
2	Irs4	SID152300223	no change with or without drug	-0.22	0.67

The listing, from the first entry:
no.	Gene	PubChem SID	combined z-score class	viability z-score with doxorubicin	viability z-score without drug
1	Or5t16	SID152341704	no change with or without drug	-0.22	0.51
2	Irs4	SID152300223	no change with or without drug	-0.22	0.67
3	Sec14l1	SID152317182	no change with or without drug	0	-0.84
4	AI591529	SID152333104	no change with or without drug	-0.67	0.51
5	Rab19	SID152279710	no change with or without drug	0.45	0.51
6	Ssr1	SID152320487	no change with or without drug	-0.45	-1.01
7	Ibsp	SID152301987	low cell count without drug only	-0.22	-2.02
8	Ndnf	SID152298749	low cell count with doxorubicin only (active)	-2.36	-1.52
9	Plek2	SID152322027	no change with or without drug	0	-1.18
10	Btn2a2	SID152308663	no change with or without drug	-0.79	-0.67
11	Arid3b	SID152269617	no change with or without drug	-1.12	-0.84
12	Kcne3	SID152321160	no change with or without drug	-0.22	0.17
13	Rhbdd1	SID152327761	no change with or without drug	-1.8	0.17
14	Sirpb1a	SID152261578	no change with or without drug	-0.56	-1.01
15	Syngr2	SID152288802	no change with or without drug	-1.69	-1.85
16	Vcpip1	SID152283202	no change with or without drug	0.34	0.51
17	Nsg1	SID152297837	no change with or without drug	-0.45	0.34
18	Zfp523	SID152304341	no change with or without drug	1.01	0.84
19	Cadm2	SID152304969	no change with or without drug	0	1.85
20	Socs6	SID152318913	no change with or without drug	0.22	-0.84
